Hit rate of the full screen: of about 16,000 compounds, about 260 (1.6%) were called active. The source calls these results inconclusive, neither active nor inactive. Calls follow the shape of the dose curve; as a rule, active = well fitted inhibition curve with a large enough effect; inconclusive = small, poorly fitted or top-dose-only effect; inactive = no such curve, though single readings can be large or run the other way.
Target: Rap guanine nucleotide exchange factor 4 (Homo sapiens) (UniProt Q8WZA2)
Experiment: Validation qHTS for antagonist of cAMP-regulated guanine nucleotide exchange factor 4 (EPAC2); also: nearly all actives have a fitted effect of over 40% in size
Details: EPAC2 Rap1B BODIPY-GDP exchange, fluorescence
From the text: Principle Investigator: Xiaodong Cheng Ph.D. The University of Texas Medical Branch, […], TX MLPCN Grant: NS066510 In multi-cellular eukaryotic organisms, the effects of cAMP are transduced by two ubiquitously-expressed intracellular cAMP receptors, the classic protein kinase A/cAMP-dependent protein kinase (PKA/cAPK) and the more recently discovered exchange protein directly activated by cAMP/cAMP-regulated guanine nucleotide exchange factor (EPAC/cAMP-GEF). Both PKA and EPAC are ubiquitously expressed in all tissues, and an increase in intracellular cAMP levels will lead to the activation of both PKA and EPAC. […] This qHTS will be used to screen the Molecular Libraries Small Molecule Repository (MLSMR) as a concentration-titration series using the NCGC unique quantitative screening (qHTS) platform to find activators for EPAC1. […] Activators are identified by monitoring the change in fluorescence signal as the exchanged free BODIPY-GDP has a reduced fluorescence compared to Rap1-bound BODIPY-GDP. […]
Briefly, three uL of reagents (100 nM EPAC2, 250 nM RAP1B-BODIPY-GDP, 50 uM GDP) were dispensed into a 1536-well Greiner black solid-bottom medium binding assay plate. […] The assay plates were read at 5 minute intervals for 30 minutes in the ViewLux plate reader using 480nm excitation and 540nm emission filters. […]
Potency is read from the fitted curve at half-maximal effect.

The chains behind the UniProt entries cited, without tags or fusion partners.
UniProt Q8WZA2, whole entry: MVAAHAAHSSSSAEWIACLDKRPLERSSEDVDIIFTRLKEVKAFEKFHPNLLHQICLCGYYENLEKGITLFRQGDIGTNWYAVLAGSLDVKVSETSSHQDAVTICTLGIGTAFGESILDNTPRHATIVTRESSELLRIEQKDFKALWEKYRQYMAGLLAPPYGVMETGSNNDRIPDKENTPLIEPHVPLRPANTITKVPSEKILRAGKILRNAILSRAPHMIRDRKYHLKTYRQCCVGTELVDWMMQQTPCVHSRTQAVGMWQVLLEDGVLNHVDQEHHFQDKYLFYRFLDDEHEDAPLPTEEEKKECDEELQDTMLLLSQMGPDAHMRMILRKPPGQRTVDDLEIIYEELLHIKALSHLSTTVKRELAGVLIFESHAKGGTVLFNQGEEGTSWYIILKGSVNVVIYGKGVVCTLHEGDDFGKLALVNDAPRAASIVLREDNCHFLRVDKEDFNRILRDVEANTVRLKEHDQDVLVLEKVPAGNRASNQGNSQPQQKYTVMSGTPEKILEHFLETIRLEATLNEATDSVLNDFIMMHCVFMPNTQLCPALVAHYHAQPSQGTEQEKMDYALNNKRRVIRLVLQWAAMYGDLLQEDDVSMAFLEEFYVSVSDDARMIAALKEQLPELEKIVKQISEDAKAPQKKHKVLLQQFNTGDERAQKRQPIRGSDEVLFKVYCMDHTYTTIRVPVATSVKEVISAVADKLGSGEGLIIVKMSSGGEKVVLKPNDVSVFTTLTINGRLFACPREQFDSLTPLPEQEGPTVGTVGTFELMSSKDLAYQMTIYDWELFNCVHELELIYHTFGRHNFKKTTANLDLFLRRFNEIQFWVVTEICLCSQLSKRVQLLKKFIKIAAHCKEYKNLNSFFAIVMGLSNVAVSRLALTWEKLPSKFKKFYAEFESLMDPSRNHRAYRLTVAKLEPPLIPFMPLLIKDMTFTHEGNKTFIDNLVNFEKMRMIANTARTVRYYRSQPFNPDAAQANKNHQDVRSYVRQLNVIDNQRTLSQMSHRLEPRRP

SMILES | Potency
O=[N+]([O-])OCC(CO[N+](=O)[O-])(CO[N+](=O)[O-])CO[N+](=O)[O-] | inconclusive: 14.1 µM

Reference: PubChem BioAssay AID1645886 (National Center for Advancing Translational Sciences (NCATS), 2021)
